In US20110207801A1, “Novel Genes, Compositions, and Methods for Modulating the Unfolded Protein Response” (University of Michigan, priority 2002, published 2011):
Some results were stated once for a whole list of compounds, not compound by compound.

Test system: xbp-1
Experiment: total xbp-1 transcription upon ER stress (quantitative Taqman RT-PCR)
Assay type: in vivo, C. elegans
Settings: data not shown

Substance: tunicamycin
- increase of total xbp-1 transcription: 2˜3 fold
